# Reference: PubChem BioAssay AID330 (DTP/NCI, 2004)
# The list is a part of this screen's results and no random one: it is rich in T/C values a quarter to a half above the control, in often repeated tests (any T/C) and in doses without a T/C. Other doses and runs of a compound stand elsewhere. T/C is the treated group as % of the vehicle group. Some entries give survivors of the animals treated and no T/C: the source holds a T/C of zero for them, seemingly a mark for toxic or unscored doses. Some doses without a T/C left all or most animals alive at the check, yet need not have been tolerated: survival well below the control is almost never listed, so the zero probably covers shortened survival too. Survivors were counted at the toxicity check, usually on the fifth day, unless a day is given; later deaths do not show. Schedule codes are those of the source, taken here to give the interval after Q, in days (D) or hours (H), and the number of doses after X. Additions like (4×) give the number of equal values in this list. Some doses were run more than once; the results are listed from low to high. For survival time, the PubChem record calls one and a half times the control and up active, and a quarter to a half above the control has no call in these data; cut-offs in other NCI protocols can differ. Some T/C values are followed by the survivors on the day toxicity was checked, most often the fifth; without a count, all were alive then.
# System: P388 leukemia ip, CD2F1 mice, survival T/C
# Test: NCI In Vivo Anticancer Drug Screen. Data for tumor model P388 Leukemia (intraperitoneal) in CD2F1 (CDF1) mice
# Settings: T/C endpoint: median survival time, higher T/C = longer survival
# [1] = dose: 67.0 mg/kg/injection, schedule: Q01DX005 (ip), vehicle: other
# [2] = dose: 100.0 mg/kg/injection, schedule: Q01DX005 (ip), vehicle: saline with Tween-80
# [3] = dose: 200.0 mg/kg/injection, schedule: Q01DX005 (ip), vehicle: saline with Tween-80
# [4] = dose: 20.0 mg/kg/injection, schedule: Q01DX009 (ip), vehicle: other
# [5] = dose: 1.0 mg/kg/injection, schedule: Q01DX005 (ip), vehicle: saline with Tween-80
compound,measurement,setting,value
NS(=O)(=O)OCCCCCCCOS(N)(=O)=O,T/C,"dose: 5.0 mg/kg/injection, schedule: Q03HX009 (ip), vehicle: other",131 % of control
same,T/C,"dose: 7.0 mg/kg/injection, schedule: Q03HX009 (ip), vehicle: other",139 % of control
same,T/C,"dose: 7.4 mg/kg/injection, schedule: Q01DX009 (ip), vehicle: other",140 % of control
same,T/C,"dose: 10.0 mg/kg/injection, schedule: Q03HX003 (ip), vehicle: other",130 % of control
same,T/C,"dose: 11.1 mg/kg/injection, schedule: Q01DX009 (ip), vehicle: other",134 % of control
same,T/C,"dose: 12.5 mg/kg/injection, schedule: Q01DX005 (ip), vehicle: saline with Tween-80",126 % of control
same,T/C,"dose: 13.0 mg/kg/injection, schedule: Q01DX005 (ip), vehicle: other",142 % of control
same,T/C,"dose: 13.0 mg/kg/injection, schedule: Q01DX005 (ip), vehicle: saline with Tween-80",138 % of control
same,T/C,"dose: 13.4 mg/kg/injection, schedule: Q01DX005 (ip), vehicle: other",141 % of control
same,T/C,"dose: 14.9 mg/kg/injection, schedule: Q04DX003 (ip), vehicle: other",130 % of control
same,T/C,"dose: 15.0 mg/kg/injection, schedule: Q03HX003 (ip), vehicle: other",141 % of control
same,T/C,"dose: 20.0 mg/kg/injection, schedule: Q01DX005 (ip), vehicle: saline with Tween-80",138 % of control
same,T/C,"dose: 20.0 mg/kg/injection, schedule: Q01DX005 (iv), vehicle: other",129 % of control
same,T/C,"dose: 22.3 mg/kg/injection, schedule: Q04DX003 (ip), vehicle: other",140 % of control
same,T/C,"dose: 25.0 mg/kg/injection, schedule: Q01DX005 (ip), vehicle: saline with Tween-80",138 % of control
same,T/C,"dose: 30.0 mg/kg/injection, schedule: Q01DX005 (ip), vehicle: saline with Tween-80, evaluated on day 45",147 and 161 % of control
same,T/C,"dose: 30.0 mg/kg/injection, schedule: Q01DX005 (ip), vehicle: saline with Tween-80, evaluated on day 60",150 (2×) and 154 % of control
same,T/C,"dose: 30.0 mg/kg/injection, schedule: Q01DX005 (iv), vehicle: other",140 % of control
same,T/C,"dose: 44.0 mg/kg/injection, schedule: Q01DX005 (ip), vehicle: saline with Tween-80, evaluated on day 30",173 % of control
same,T/C,"dose: 44.0 mg/kg/injection, schedule: Q01DX005 (ip), vehicle: saline with Tween-80, evaluated on day 45",158 and 167 % of control
same,T/C,"dose: 44.0 mg/kg/injection, schedule: Q01DX005 (ip), vehicle: saline with Tween-80, evaluated on day 60","169, 169 [9 of 10 alive], 172, 173 (2×), 188 % of control"
same,T/C,"dose: 44.9 mg/kg/injection, schedule: Q01DX001 (ip), vehicle: other",134 % of control
same,T/C,"dose: 50.0 mg/kg/injection, schedule: Q01DX005 (ip), vehicle: saline with Tween-80","109, 165, 174, 189 % of control"
same,survivor count,"dose: 55.0 mg/kg/injection, schedule: Q03HX009 (ip), vehicle: other",10 of 10
same,T/C,"dose: 55.6 mg/kg/injection, schedule: Q01DX009 (oral), vehicle: other",134 % of control [9 of 10 alive]
same,T/C,"dose: 67.0 mg/kg/injection, schedule: Q01DX001 (iv), vehicle: other",139 % of control
same,T/C,[1],131 % of control
same,survivor count,[1],9 of 10
same,T/C,"dose: 67.0 mg/kg/injection, schedule: Q01DX005 (ip), vehicle: saline with Tween-80, evaluated on day 30",193 % of control
same,T/C,"dose: 67.0 mg/kg/injection, schedule: Q01DX005 (ip), vehicle: saline with Tween-80, evaluated on day 45",185 and 191 % of control
same,T/C,"dose: 67.0 mg/kg/injection, schedule: Q01DX005 (ip), vehicle: saline with Tween-80, evaluated on day 60","164, 171, 182 (2×), 188, 199 % of control"
same,survivor count,"dose: 74.83 mg/kg/injection, schedule: Q03HX003 (ip), vehicle: other",10 of 10
same,survivor count,"dose: 100.0 mg/kg/injection, schedule: Q01DX001 (iv), vehicle: other",4 of 10
same,survivor count,"dose: 100.0 mg/kg/injection, schedule: Q01DX005 (ip), vehicle: other",10 of 10
same,T/C,"dose: 100.0 mg/kg/injection, schedule: Q01DX005 (ip), vehicle: saline with Tween-80, evaluated on day 30","86, 137, 157, 199 % of control"
same,T/C,"dose: 100.0 mg/kg/injection, schedule: Q01DX005 (ip), vehicle: saline with Tween-80, evaluated on day 45",137 and 213 % of control
same,T/C,"dose: 100.0 mg/kg/injection, schedule: Q01DX005 (ip), vehicle: saline with Tween-80, evaluated on day 60","88 [9 of 10 alive], 101, 115, 132, 200, 230 % of control"
same,survivor count,[2],6 of 6
same,survivor count,"dose: 111.0 mg/kg/injection, schedule: Q03HX003 (ip), vehicle: other",4 of 10
same,survivor count,"dose: 123.7 mg/kg/injection, schedule: Q01DX009 (oral), vehicle: other",10 of 10
same,survivor count,"dose: 125.0 mg/kg/injection, schedule: Q01DX005 (ip), vehicle: saline with Tween-80",10 of 10 (2×)
same,survivor count,"dose: 150.0 mg/kg/injection, schedule: Q01DX005 (ip), vehicle: other",9 of 10
same,survivor count,"dose: 150.0 mg/kg/injection, schedule: Q01DX005 (ip), vehicle: saline with Tween-80",10 of 10
same,survivor count,"dose: 184.6 mg/kg/injection, schedule: Q01DX009 (oral), vehicle: other",10 of 10
same,survivor count,[3],6 of 6
same,survivor count,"dose: 224.5 mg/kg/injection, schedule: Q01DX001 (ip), vehicle: other",10 of 10
NC(=N/C(=C/c1ccccc1)c1ccccc1)c1ccccc1,survivor count,[3],2 of 5
O=C1C(c2ccccc2)=C(c2ccccc2)C2(c3ccccc3)Oc3c(Cl)c(Cl)c(Cl)c(Cl)c3OC12c1ccccc1 (configuration not stated),survivor count,"dose: 200.0 mg/kg/injection, schedule: Q01DX009 (ip), vehicle: saline with Tween-80",6 of 6
CN1CCC/C1=C/C(=O)c1ccccc1,survivor count,"dose: 400.0 mg/kg/injection, schedule: Q04DX003 (ip), vehicle: saline",0 of 6
CCCCCCCCCCCCCCCCCCOC(=O)Cc1ccc(N(CCCl)CCCl)cc1,T/C,"dose: 22.5 mg/kg/injection, schedule: Q01DX009 (ip), vehicle: saline with Tween-80",127 % of control
O=[N+]([O-])C1=NOCC1,survivor count,"dose: 200.0 mg/kg/injection, schedule: Q01DX005 (ip), vehicle: suspension in saline",0 of 6
CC(C)(OCc1ccccc1)c1ccccc1[P+](C)(c1ccccc1)c1ccccc1,survivor count,"dose: 400.0 mg/kg/injection, schedule: Q01DX001 (ip), vehicle: Klucel (hydroxypropylcellulose) (HPC)",0 of 6
COc1cccc2c(NCCCNCCCNc3c4ccccc4nc4c(OC)cccc34)c3ccccc3nc12,T/C,"dose: 1.25 mg/kg/injection, schedule: Q01DX009 (ip), vehicle: other",130 % of control
same,T/C,"dose: 2.5 mg/kg/injection, schedule: Q01DX009 (ip), vehicle: other",131 and 135 % of control
same,T/C,"dose: 5.0 mg/kg/injection, schedule: Q01DX009 (ip), vehicle: other",141 % of control
same,T/C,"dose: 10.0 mg/kg/injection, schedule: Q01DX009 (ip), vehicle: other",139 % of control
same,T/C,[4],149 % of control [5 of 6 alive]
same,survivor count,[4],5 of 6
same,survivor count,"dose: 40.0 mg/kg/injection, schedule: Q01DX009 (ip), vehicle: other",0 of 6
NCC1CC2(Cl)C(Cl)=C(Cl)C1(Cl)C2(Cl)Cl (configuration not stated),survivor count,[2],0 of 6
same,survivor count,[3],0 of 6
CCOC(=O)Nc1cc2c(c(N)n1)N=C(c1ccccc1)C(C)N2 (configuration not stated),T/C,"dose: 0.5 mg/kg/injection, schedule: Q01DX005 (ip), vehicle: saline with Tween-80",127 and 146 % of control
same,T/C,[5],138 % of control
same,survivor count,[5],5 of 6
same,survivor count,"dose: 1.5 mg/kg/injection, schedule: Q01DX005 (ip), vehicle: saline with Tween-80",2 of 6 and 6 of 6
CCCCCCCC/C=C\CCCCCCCCN1CCOCC1,survivor count,"dose: 200.0 mg/kg/injection, schedule: Q01DX009 (ip), vehicle: saline",2 of 6
CS(=O)(=O)OCC(O)C(O)C(OS(C)(=O)=O)C(O)COS(C)(=O)=O (configuration not stated),survivor count,"dose: 200.0 mg/kg/injection, schedule: Q04DX003 (ip), vehicle: Klucel (hydroxypropylcellulose) (HPC)",6 of 6
